Assay results reported in patent US20240260627A1, “FOOD INGREDIENTS FROM STEVIA REBAUDIANA” (PURECIRCLE USA INC., priority 2016, published 2024).

Assay: Sensory evaluation of chocolate samples
Settings: sweetener composition 0.1%, 20 panelists, score 1 to 5, lower score = more pleasant

C=C1C[C@@]23CC[C@H]4[C@@](C)(CCC[C@@]4(C)C(=O)O[C@@H]4O[C@H](CO)[C@@H](O)[C@H](O)[C@H]4O)[C@@H]2CC[C@]1(O[C@@H]1O[C@H](CO)[C@@H](O)[C@H](O[C@@H]2O[C@H](CO)[C@@H](O)[C@H](O)[C@H]2O)[C@H]1O[C@@H]1O[C@H](CO)[C@@H](O)[C@H](O)[C@H]1O)C3 [Pure RebA 97, Rebaudioside A]
5: Bitterness | Licorice taste | Sweetness Lingering
